Data as given in patent US8765678B2, “Inhibition of the renin-angiotensin system for the treatment of renal, vascular and cartilage pathology” (Mor Research Applications Ltd., priority 2005, dated 2014).
For at least one compound, name, drawing or mass did not settle the structure.

System: Rat mesangial cells (RMC)
Test: Radioactive assay (^35S labeling) of cell-associated GAGs in RMC
Assay type: cell-based
Settings: cell type not given; in the presence of PAN
Description: Rat mesangial cells (RMC): RMC derived from Sprague-Dawley rats (#ATCC-mesangial-CRL-2573) were cultured in DMEM supplemented with 15% fetal calf serum (FCS) and antibiotics, according to ATCC instructions. Mesangial cells are derived from the glomerular interstitium of the kidney and thus serve as a valuable tool for the analysis of the GBM.
Radioactive assay (^35S labeling): Cells were grown to confluence, and were rendered quiescent in 2% FCS for 24 hours, following which they were transferred to serum-free medium plus one of the following additives: control, PAN 40 μg/ml, PAN+E 200 μg/ml, PAN+E 400 μg/ml, PAN+E 800 μg/ml, PAN+C10^−7M candesartan in the presence of 1 μCi/ml ^35S. Following 24 hours, medium was collected, cells were harvested by trypsinization, and aliquots obtained for cell and protein measurements. Cells were digested with papain as described, followed by extensive dialysis against water containing a non-radioactive sodium sulfate, until water contained less than 100 cpm/ml. Dialysate was transferred to Corex tubes and the same procedure was carried out as described for non-radioactive GAGs. Radioactivity was measured in a beta-counter.

With `CCOc1nc2cccc(C(=O)O)c2n1Cc1ccc(-c2ccccc2-c2nnn[nH]2)cc1` [candesartan] the “GAG synthesis (incorporation of ^35S), summary statement” value was “significantly increased GAG synthesis to control levels”.
